This is a noisy data set.
test system: RAW-Blue (mouse TLR9 reporter, RAW 264.7); assay: mTLR9 reporter activity (SEAP, QUANTI-Blue absorbance) (OD650); higher = stronger mouse TLR9 activation; conditions: 3 h
Experimental: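 Synthetic single-stranded 24-mer CpG ODNs were diluted in saline and added to mouse RAW-Blue cells (RAW 264.7 with an NF-kB/AP-1-inducible SEAP reporter; endogenous mouse TLR9), about 1e5 cells/well. After 3 h, SEAP in the supernatant was read with QUANTI-Blue as absorbance at 650 nm. ODN concentration and backbone chemistry are not stated; activity of 0.4 or above is the paper's high-activity class.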

| Sequence | mTLR9 reporter activity |
| --- | --- |
| TCGCGCTCTGTTCGCGTTGTGTTT [ODN252] | 0.191 |
| TCGCGGCCCGACGTTCCTTGGTAT [mODN057] | 1.1 |
| TCGCGGCCCGCGTTCGCTGCATTC [mODN-023] | 0.51 |
| TCGCGTATGTCGCGTTTTTGCGCT [ODN262] | 0.16 |
| TCGCGTCGCTGTCGTGCTGCATTT [ODN135] | 0.568 |
| TCGCGTCGTTATGCGCTCGTTCGT [ODN206] | 0.26 |
| TCGCGTCGTTCTGCGCTCTGCTGT [ODN222] | 0.272 |
| TCGCGTGCGATGCGCTTCTGTCGT [ODN207] | 0.154 |
| TCGCGTGCGCGTTGCGTGTCATGT [ODN154] | 0.199 |
| TCGCGTGCGTATTTTTGCGTCTGT [ODN210] | 0.145 |
| TCGCGTGCGTCGTTGAGTCTTTTT [ODN127] | 0.362 |
| TCGCGTGCGTGCGTCTGCTGCTAT [ODN144] | 0.181 |
| TCGCGTGCGTTGTGTCATTCTCGT [ODN186] | 0.17 |
| TCGCGTGGCCCTTATTCTCCGCGG [mODN044] | 0.41 |
| TCGCGTTCCTTGTCCGGCGGTACG [mODN-021] | 0.65 |
| TCGCGTTCGCGCTCGTTGATCTGT [ODN119] | 0.255 |
| TCGCGTTCGCGTGATCGTTTTGCT [ODN129] | 0.268 |
| TCGCGTTCGCTTGTGTACGTCTGT [ODN205] | 0.231 |
| TCGCGTTCGTCGATGTCGTTCTGT [ODN648] | 0.952 |
| TCGCGTTCGTCGTGTTTGTGCTCT [ODN151] | 0.657 |
| TCGCGTTCGTCTACGCTGTGTCGT [ODN164] | 0.266 |
| TCGCGTTGTCGGCCCGTTCCTCCG [mODN056] | 0.84 |
| TCGCTAAGTGTGCGCGCGACGTTT [ODN087] | 0.185 |
| TCGCTCACGCCGCTTGCTTGGTCG [mODN86] | 0.68 |

| Sequence | mTLR9 reporter activity |
| --- | --- |
| TCGCTCCGGTCGGTTATTCGGCAC [mODN042] | 0.5 |
| TCGCTCGATGCGCGTTCGTCTTGT [ODN638] | 0.849 |
| TCGCTCGCGCGCAGCGTGTCTTCT [ODN657] | 0.176 |
| TCGCTCGCGTCATTGTGTCGTTGT [ODN170] | 0.158 |
| TCGCTCGCTCGTTATGTGCGTGTT [ODN716] | 0.611 |
| TCGCTCGCTTGTCGCGATGTTTGT [ODN180] | 0.132 |
| TCGCTCGGGCGTCGCGGTTCCCTT [mODN76] | 0.46 |
| TCGCTCGTCGCGCGCGTTGCTATT [ODN190] | 0.146 |
| TCGCTCGTTGCGCTGTGTTCGATT [ODN136] | 0.698 |
| TCGCTCTCGTTGTGTTCGCGTAGT [ODN165] | 0.251 |
| TCGCTGCGCGTGCGTTTGCTTGCT [ODN155] | 0.278 |
| TCGCTGCGCGTGTGCTTTGTTCGT [ODN698] | 0.181 |
| TCGCTGCGTCTCGCGTCGTTGTCT [ODN540] | 0.419 |
| TCGCTGCGTTCGTCGTGTTGATGT [ODN719] | 1.14 |
| TCGCTGCTCGTGCGTCGTTTGTCT [ODN750] | 0.515 |
| TCGCTGCTGACGTCTGCGTCGTTT [ODN773] | 0.303 |
| TCGCTGCTTGGCATTGCCGCGACG [mODN-020] | 0.37 |
| TCGCTGTCGCTATGCGCTCGCTGT [ODN145] | 0.384 |
| TCGCTTACGGTTTGCGAGCCGCCA [mODN-005] | 0.44 |
| TCGCTTCCTTTCGCCGGGCGATGC [mODN72] | 0.55 |
| TCGCTTCGCGCGTTGTGTGTTCTT [ODN246] | 0.199 |
| TCGCTTCGCGTTTGCGTACGTGCT [ODN761] | 0.327 |
| TCGCTTGACCGTTGGGCGCGGTCC [mODN75] | 0.64 |
| TCGCTTGCGCGTACGCGCTTCGCT [ODN116] | 0.196 |

| Sequence | mTLR9 reporter activity |
| --- | --- |
| TCGGCCCCGTCAGCGTTACGCTTG [mODN049] | 0.9 |
| TCGGCCGTTCGCATTACGCTGGCC [mODN037] | 0.89 |
| TCGGCCGTTCTACGGTCCCTTCGG [mODN-009] | 0.17 |
| TCGGCCTTTCTCGGCGCTTCGCGA [mODN067] | 0.51 |
| TCGGCGCTTCACCCGTGCGTTGAC [mODN046] | 1 |
| TCGGCGTTACCGCCCGGGTTTACA [mODN85] | 0.6 |
| TCGGCTCCGTCGGCCTTCTTGCGG [mODN73] | 0.46 |
| TCGGCTCGCTTACCGCGGCATTGG [mODN048] | 0.62 |
| TCGGGCCGACGTTCAGTTCGTCCA [mODN89] | 0.82 |
| TCGGGCCGTCAGCGTTCTCATTCG [mODN047] | 1.03 |
| TCGGGCGACTTTACGCACCGCGTT [mODN74] | 0.63 |
| TCGGGCTTCGTACGGTCCGACCTT [mODN-028] | 0.64 |
| TCGGGGTTGCCTGCCGCGCTTGCG [mODN031] | 0.29 |
| TCGGTCCGTTGTTCGCAGCACGCT [mODN-025] | 0.43 |
| TCGGTCGACCTTGCGCGGCGTTCA [mODN063] | 0.76 |
| TCGGTTCCGCGCCGATGTTAGGCC [mODN-013] | 0.15 |
| TCGGTTTGACCTTTCGCACGGCCG [mODN035] | 0.33 |
| TCGTAAGCGTGTCGACGTTGACTT [ODN095] | 0.36 |
| TCGTCCTTCGACGAGCTTCGGCAG [mODN-030] | 0.35 |
| TCGTCGCGTGCTGCTGTTCGTACT [ODN270] | 0.243 |
| TCGTCGCGTTCGTGTTTGTCGCTT [ODN737] | 1.12 |
| TCGTCTCGCGTGCGATGCGTCTGT [ODN146] | 0.348 |
| TCGTCTCGCGTGCGCTATTGTGTT [ODN117] | 0.315 |
| TCGTCTGCGCGTGCGCTCTAGTCT [ODN130] | 0.421 |

| Sequence | mTLR9 reporter activity |
| --- | --- |
| TCGTCTTCGTGCGACGCGTGCTTT [ODN200] | 0.12 |
| TCGTCTTGATCAGCGGCGCGCCTT [mODN79] | 0.49 |
| TCGTGAGTTAGTCGAGCGTCGTTT [ODN101] | 0.12 |
| TCGTGATCGCTCGTTTTGTGCGCT [ODN142] | 0.617 |
| TCGTGCGATCGCGCGTGCTTTGTT [ODN172] | 0.146 |
| TCGTGCGCGAGTCTGTCTGTTCGT [ODN197] | 0.128 |
| TCGTGCGCGCGCTGTCTTGTTGCT [ODN152] | 0.306 |
| TCGTGCGCGCGTCGCATTGTTCTT [ODN176] | 0.134 |
| TCGTGCGTCGCGTCACTGTCTTGT [ODN118] | 0.152 |
| TCGTGCGTCGCTCTGTTCGTGCTT [ODN510] | 0.72 |
| TCGTGCGTCGTGTCGCGTTGTTCT [ODN632] | 0.545 |
| TCGTGCGTCTGCGAGCTCGTTTCT [ODN137] | 0.262 |
| TCGTGCGTGAGCTTTCGCGTTGTT [ODN217] | 0.203 |
| TCGTGCGTGTGATTCGCGCTTTCT [ODN535] | 0.285 |
| TCGTGCGTTTCTGATCGCGCTTGT [ODN201] | 0.258 |
| TCGTGCGTTTTTGTTTTGTCGCGT [ODN055.2] | 0.948 |
| TCGTGCTTACGTTACGACCCCGGG [mODN99] | 0.77 |
| TCGTGCTTTAGCGTCGTGTCGTCT [ODN253] | 0.156 |
| TCGTGTCGCGTGCGTGAGTGTTCT [ODN141] | 0.309 |
| TCGTGTCGCGTTCGTTCTTGTAGT [ODN168] | 0.287 |
| TCGTGTCGCTTCGTTGTTATGCGT [ODN607] | 0.757 |
| TCGTGTGTCGCGTAGTGTCGTGCT [ODN643] | 0.464 |
| TCGTGTTCGTTGTTCTGCGATCGT [ODN160] | 0.202 |
| TCGTGTTCTCGTCGTTGTTGACGT [ODN855] | 0.463 |

Laid out differently: results already given
TCGTGCGTCTGCGAGCTCGTTTCT [ODN137]
  mTLR9 reporter activity: 0.262
TCGTGCGTGAGCTTTCGCGTTGTT [ODN217]
  mTLR9 reporter activity: 0.203

2 entries from above, as tab-separated lines:
Sequence	mTLR9 reporter activity
TCGTGCGATCGCGCGTGCTTTGTT [ODN172]	0.146
TCGTGTCGCTTCGTTGTTATGCGT [ODN607]	0.757

(list continues)

| Sequence | mTLR9 reporter activity |
| --- | --- |
| TCGTGTTTTCGCGAGCGCAGTTTT [ODN003] | 0.42 |
| TCGTTAGCGTGTCGTTTTGTTCGT [ODN148] | 0.568 |
| TCGTTATCTTGGCGGCCGGCCCGT [mODN88] | 0.47 |
| TCGTTATGCGCGCGTTCGTCTCGT [ODN701] | 0.764 |
| TCGTTCCCGACGGAGCTTCGGCTG [mODN87] | 0.58 |
| TCGTTCCCGGACGGAGGTCTTCGC [mODN-002] | 0.15 |
| TCGTTCGCGCGCTCGTCTTTGTGT [ODN167] | 0.183 |
| TCGTTCGCGCTCGTCGTGTTTGAT [ODN213] | 0.2 |
| TCGTTCGTCGCTGCGTCGTGTTCT [ODN202] | 0.263 |
| TCGTTCGTGCGTCTTGCGACTTGT [ODN132] | 0.52 |
| TCGTTCGTGCTCTAGCGCGTTGTT [ODN163] | 0.159 |
| TCGTTCGTTGTGCTTGACGCGTGT [ODN115] | 0.53 |
| TCGTTCGTTTGCGTCGTGTCATGT [ODN228] | 0.296 |
| TCGTTCTCGCGCGTGCGTACTGCT [ODN126] | 0.153 |
| TCGTTCTCTGCGCGCGCTTTGCGT [ODN671] | 0.423 |
| TCGTTCTTGCGACGCTCGCGTTGT [ODN826] | 0.521 |
| TCGTTGATGTCGTCGTCGTGCTCT [ODN733] | 0.301 |
| TCGTTGCGATCGTCTCGCTTGTGT [ODN772] | 0.822 |
| TCGTTGCGCATCGCGCTGTTGTCT [ODN121] | 0.145 |
| TCGTTGCGCCGGATCCGCGATTCA [mODN040] | 0.54 |
| TCGTTGCGCGCTTCAGTGCGTCGT [ODN814] | 0.366 |
| TCGTTGCGCTGCTCGTCGTGTGCT [ODN156] | 0.523 |
| TCGTTGCGCTTACGCGCTGTCGCT [ODN831] | 0.5 |
| TCGTTGCGCTTGCGTGTCGTTTAT [ODN196] | 0.116 |

From the supplement of paper PMC6924143
